Laboratory results as given in patent US9238022B2, “Xanthanodien for the treatment of cancer” (priority 2010, dated 2016).
At least one compound was matched to its structure with a doubt left.

System: ovarian cancer cells JC, NIH:OVCAR-3, SKOV-3
Assay: In vitro cytotoxicity test (Alamar blue, microscopy) on ovarian cancer cells
Format: cell-based
Conditions: comparison of crude extract, cisplatin and docetaxol; concentration of the drugs not given
Procedure: Cells used in the assays were an ovarian cell line, JC (van Haaften-Day et al. 1983. Cancer Research 43: 3725-3731), OVCAR-3 and SKOV-3, The American Type Culture Collection (ATCC), a melanoma line (MM-An, Byers et al. 1991. Am J Path 139, No 2: 423-435) and normal human diploid fibroblasts primary cultures (Brookes et al. 2002 The EMBO Journal Vol. 21, No. 12: 2936-2945).
In vitro cytotoxicity tests were performed using a non-fluorescent substrate, Alamar blue (BioSource, Invitrogen, UK) as described by Page et al. (Page B, Page M and Noel C. 1993. International Journal of Oncology 3: 473-476). […]
The in exponential growth cultures (in triplicates) were treated with the compound, dissolved in dimethyl sulfoxide (DMSO) and added at final concentrations of 1, 5, and 10 μg/mL. […] Cell viability was measured with a 96-well plate reader (Molecular Devices Ltd, UK). […]
Cell viability was measured by adding 10% Alamar Blue (BioSource, Invitrogen, UK) to ovarian cancer cell cultures (OVCAR-3, SKOV-3) to 1, 5 and 10 μg/ml of EPD and to the control cultures (as described above). After 24, 48 and 72 hours incubation, 100 μl of culture supernatant was taken and cell viability measured with a plate reader (Molecular Devices, Ltd, UK) according to the manufacturer's instructions. […]

With CC(=O)O[C@@]12CO[C@@H]1C[C@H](O)[C@@]1(C)C(=O)[C@H](O)C3=C(C)[C@@H](OC(=O)[C@H](O)[C@@H](NC(=O)OC(C)(C)C)c4ccccc4)C[C@@](O)([C@@H](OC(=O)c4ccccc4)[C@H]21)C3(C)C [docetaxol, reference compound] as the molecule, how does the “killing of cancer cells, parallel comparison” value read?
Its value is “completely kill”.
